This is one part of the list. The data scatter; read single values as rough.
Compound: ClCC(=O)N[C@H]1CCCc2ccccc12
Assay: log2 mean competition ratio of IA-DTB cysteine labelling (DMSO/compound) (log2 ratio); higher = stronger cysteine engagement by compound
Settings: 200 µM; treatment time: 4 h; cell line lysate: HEK293T
Protocol: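 IA-DTB competitive cysteine chemoproteomics in HEK293T RIPA lysate. Lysates were treated with compound 29 or 30 at 50 or 200 µM for 4 h, then IA-DTB (500 µM, 1 h), trypsin-digested, NeutrAvidin-enriched and analysed by diaPASEF. Competition ratio = intensity DMSO / intensity compound (n=4 treated, n=64 DMSO); binding: mean log2 CR ≥ 1 and p ≤ 0.05 plus QC filters. Target is the cysteine site.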

Chains of the proteins cited; added tags and fusions are not shown. Lines headed by an entry give the natural chain unless they say otherwise; changes in a name come on top. Residues count along the entry.
UniProt Q8TBC4: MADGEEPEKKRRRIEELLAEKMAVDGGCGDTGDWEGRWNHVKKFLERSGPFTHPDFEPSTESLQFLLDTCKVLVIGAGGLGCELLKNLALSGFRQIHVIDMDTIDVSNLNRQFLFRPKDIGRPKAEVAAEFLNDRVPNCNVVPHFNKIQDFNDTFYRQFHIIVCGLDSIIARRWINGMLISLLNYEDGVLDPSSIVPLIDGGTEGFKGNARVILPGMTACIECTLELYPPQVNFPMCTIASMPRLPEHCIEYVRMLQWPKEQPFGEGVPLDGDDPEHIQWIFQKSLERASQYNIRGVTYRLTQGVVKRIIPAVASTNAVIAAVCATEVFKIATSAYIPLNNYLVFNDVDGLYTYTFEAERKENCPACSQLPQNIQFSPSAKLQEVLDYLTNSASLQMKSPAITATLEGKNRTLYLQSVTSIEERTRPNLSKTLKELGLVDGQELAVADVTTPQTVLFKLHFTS
UniProt Q7Z4G4: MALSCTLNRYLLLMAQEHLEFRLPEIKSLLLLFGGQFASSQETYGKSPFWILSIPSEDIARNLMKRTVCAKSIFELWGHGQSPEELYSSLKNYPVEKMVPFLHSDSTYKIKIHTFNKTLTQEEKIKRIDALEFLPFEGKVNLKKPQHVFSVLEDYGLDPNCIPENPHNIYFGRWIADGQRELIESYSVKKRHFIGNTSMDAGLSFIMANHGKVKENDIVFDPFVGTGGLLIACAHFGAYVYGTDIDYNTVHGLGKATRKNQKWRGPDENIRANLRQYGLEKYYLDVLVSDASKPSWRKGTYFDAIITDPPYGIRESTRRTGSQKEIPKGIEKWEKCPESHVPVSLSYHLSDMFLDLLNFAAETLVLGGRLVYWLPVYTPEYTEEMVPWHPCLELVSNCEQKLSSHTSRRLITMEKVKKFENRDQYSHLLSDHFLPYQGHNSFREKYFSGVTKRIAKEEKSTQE
UniProt Q12815: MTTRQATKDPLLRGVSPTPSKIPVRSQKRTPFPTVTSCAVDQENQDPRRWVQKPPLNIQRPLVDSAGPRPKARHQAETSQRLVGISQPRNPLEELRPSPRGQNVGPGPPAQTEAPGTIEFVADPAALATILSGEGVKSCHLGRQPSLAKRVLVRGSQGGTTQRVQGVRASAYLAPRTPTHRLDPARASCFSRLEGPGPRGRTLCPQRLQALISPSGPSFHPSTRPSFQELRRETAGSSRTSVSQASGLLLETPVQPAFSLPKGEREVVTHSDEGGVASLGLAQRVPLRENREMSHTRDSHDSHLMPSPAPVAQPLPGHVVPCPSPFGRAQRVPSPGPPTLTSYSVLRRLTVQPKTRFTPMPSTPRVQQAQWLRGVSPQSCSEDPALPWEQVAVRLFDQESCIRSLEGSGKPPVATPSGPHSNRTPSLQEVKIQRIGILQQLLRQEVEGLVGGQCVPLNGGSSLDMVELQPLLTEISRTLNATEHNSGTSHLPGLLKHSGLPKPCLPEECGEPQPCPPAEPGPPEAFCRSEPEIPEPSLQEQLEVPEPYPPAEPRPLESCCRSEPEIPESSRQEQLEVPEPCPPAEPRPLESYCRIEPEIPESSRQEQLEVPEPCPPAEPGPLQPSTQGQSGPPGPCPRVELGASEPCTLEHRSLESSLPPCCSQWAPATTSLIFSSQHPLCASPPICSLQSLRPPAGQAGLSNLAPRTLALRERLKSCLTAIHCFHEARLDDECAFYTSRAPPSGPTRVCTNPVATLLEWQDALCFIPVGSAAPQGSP
UniProt Q9Y5Z9, 21-40: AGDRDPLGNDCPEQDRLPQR
UniProt Q8TBZ6: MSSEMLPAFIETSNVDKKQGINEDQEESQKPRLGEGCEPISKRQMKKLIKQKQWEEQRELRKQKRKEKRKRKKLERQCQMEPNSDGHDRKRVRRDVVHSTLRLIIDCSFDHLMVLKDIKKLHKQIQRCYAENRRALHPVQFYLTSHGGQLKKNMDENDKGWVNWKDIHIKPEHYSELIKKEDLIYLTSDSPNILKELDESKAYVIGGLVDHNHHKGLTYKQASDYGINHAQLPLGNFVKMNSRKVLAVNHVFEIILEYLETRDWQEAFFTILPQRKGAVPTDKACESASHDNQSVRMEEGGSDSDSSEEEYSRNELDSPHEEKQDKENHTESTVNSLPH
UniProt Q8IWV8: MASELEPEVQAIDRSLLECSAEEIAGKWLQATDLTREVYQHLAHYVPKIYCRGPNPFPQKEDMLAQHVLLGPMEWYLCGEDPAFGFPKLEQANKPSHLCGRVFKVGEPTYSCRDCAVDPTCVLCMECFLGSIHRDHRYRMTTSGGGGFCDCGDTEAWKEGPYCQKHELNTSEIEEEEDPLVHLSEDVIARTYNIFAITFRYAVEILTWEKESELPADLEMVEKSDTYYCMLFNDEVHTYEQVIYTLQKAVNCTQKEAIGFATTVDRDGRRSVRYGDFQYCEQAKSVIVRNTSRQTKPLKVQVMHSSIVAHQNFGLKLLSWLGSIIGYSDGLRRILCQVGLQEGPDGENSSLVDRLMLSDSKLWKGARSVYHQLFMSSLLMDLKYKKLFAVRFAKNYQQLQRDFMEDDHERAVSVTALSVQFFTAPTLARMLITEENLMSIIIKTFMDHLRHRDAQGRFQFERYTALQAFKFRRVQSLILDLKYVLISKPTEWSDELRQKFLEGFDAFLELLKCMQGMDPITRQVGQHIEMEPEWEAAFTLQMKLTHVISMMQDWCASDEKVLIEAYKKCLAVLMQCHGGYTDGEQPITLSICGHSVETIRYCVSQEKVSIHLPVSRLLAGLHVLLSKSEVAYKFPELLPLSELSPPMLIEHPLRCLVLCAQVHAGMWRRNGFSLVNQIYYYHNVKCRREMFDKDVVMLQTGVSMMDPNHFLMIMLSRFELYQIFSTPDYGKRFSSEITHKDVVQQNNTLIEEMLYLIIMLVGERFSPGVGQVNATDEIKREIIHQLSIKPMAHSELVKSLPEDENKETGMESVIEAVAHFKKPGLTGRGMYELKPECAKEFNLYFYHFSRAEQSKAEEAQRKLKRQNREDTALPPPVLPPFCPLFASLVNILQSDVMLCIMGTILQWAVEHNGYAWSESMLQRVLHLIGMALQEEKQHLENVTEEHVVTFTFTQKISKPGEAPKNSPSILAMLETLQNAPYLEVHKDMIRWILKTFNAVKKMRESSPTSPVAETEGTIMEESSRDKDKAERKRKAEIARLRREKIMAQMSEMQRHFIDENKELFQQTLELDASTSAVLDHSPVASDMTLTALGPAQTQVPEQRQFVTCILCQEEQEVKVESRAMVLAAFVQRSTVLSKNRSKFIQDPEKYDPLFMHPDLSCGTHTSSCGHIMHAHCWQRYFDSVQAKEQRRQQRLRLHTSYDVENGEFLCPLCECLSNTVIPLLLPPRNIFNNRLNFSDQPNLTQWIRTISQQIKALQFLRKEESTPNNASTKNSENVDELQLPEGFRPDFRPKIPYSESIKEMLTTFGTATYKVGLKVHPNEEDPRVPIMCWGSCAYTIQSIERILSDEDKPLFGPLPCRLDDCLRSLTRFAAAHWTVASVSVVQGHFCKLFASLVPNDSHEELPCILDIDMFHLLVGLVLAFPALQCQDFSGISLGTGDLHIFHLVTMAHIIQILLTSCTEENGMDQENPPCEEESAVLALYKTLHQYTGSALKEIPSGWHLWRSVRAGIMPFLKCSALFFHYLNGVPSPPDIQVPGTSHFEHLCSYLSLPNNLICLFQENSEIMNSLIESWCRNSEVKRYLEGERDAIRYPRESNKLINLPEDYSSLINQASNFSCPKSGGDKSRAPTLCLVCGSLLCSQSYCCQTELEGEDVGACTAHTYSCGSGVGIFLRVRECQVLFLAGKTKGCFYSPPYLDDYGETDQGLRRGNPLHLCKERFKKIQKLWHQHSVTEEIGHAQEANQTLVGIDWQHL
UniProt P43897: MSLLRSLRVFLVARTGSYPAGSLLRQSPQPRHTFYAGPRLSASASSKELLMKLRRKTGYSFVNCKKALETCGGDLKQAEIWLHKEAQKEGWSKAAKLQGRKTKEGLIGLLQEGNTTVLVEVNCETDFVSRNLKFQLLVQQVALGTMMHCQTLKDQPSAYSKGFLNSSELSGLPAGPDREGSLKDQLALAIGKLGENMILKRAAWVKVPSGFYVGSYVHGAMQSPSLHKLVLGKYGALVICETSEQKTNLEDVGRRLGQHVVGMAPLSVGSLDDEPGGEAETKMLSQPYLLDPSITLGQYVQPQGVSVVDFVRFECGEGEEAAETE
UniProt Q9UJT0, 198-220: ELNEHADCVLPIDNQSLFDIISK
UniProt Q7Z6J8: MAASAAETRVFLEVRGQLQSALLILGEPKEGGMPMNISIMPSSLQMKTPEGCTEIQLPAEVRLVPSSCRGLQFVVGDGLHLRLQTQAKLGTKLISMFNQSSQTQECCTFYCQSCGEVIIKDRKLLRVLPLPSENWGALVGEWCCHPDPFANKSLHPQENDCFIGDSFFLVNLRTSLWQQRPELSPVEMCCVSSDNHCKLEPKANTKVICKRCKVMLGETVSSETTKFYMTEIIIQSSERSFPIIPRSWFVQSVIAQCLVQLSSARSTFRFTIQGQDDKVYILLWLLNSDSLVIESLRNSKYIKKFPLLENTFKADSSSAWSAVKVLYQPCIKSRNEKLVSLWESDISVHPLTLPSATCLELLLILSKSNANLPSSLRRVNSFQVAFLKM
UniProt Q7Z4L5: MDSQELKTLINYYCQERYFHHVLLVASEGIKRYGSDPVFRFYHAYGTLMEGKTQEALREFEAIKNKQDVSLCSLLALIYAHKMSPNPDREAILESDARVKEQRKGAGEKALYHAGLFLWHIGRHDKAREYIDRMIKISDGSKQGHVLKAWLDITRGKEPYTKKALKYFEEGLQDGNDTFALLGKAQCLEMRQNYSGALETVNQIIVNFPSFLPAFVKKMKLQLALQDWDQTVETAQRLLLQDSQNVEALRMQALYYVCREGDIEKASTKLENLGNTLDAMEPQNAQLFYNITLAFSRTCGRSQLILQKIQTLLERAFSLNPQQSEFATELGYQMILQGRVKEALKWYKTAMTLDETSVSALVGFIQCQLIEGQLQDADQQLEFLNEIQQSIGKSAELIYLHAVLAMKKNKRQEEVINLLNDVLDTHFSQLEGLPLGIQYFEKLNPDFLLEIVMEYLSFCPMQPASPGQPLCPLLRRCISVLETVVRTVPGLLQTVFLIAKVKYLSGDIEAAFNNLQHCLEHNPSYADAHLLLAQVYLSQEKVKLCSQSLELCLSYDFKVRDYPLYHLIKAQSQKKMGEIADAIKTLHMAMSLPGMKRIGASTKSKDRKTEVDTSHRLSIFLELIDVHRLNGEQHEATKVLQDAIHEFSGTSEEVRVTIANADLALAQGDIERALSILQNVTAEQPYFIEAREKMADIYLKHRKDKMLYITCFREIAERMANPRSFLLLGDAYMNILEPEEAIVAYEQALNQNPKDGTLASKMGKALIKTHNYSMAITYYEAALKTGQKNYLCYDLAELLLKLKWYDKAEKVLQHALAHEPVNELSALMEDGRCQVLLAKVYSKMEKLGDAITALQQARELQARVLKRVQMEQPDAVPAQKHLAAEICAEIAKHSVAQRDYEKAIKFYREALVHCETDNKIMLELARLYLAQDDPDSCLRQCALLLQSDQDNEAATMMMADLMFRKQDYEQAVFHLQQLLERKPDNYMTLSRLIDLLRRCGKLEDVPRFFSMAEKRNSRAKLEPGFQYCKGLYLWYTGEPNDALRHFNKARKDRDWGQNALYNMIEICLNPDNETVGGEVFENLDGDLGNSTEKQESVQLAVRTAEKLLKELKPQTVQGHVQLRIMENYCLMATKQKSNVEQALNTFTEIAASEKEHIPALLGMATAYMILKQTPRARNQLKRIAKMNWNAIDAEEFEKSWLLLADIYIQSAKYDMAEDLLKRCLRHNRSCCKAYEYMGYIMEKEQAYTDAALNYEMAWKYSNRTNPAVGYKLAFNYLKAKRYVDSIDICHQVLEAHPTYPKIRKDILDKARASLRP
UniProt Q9BZL1: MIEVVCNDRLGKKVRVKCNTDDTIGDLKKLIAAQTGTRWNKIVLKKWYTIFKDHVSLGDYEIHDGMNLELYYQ
UniProt Q8IZ69: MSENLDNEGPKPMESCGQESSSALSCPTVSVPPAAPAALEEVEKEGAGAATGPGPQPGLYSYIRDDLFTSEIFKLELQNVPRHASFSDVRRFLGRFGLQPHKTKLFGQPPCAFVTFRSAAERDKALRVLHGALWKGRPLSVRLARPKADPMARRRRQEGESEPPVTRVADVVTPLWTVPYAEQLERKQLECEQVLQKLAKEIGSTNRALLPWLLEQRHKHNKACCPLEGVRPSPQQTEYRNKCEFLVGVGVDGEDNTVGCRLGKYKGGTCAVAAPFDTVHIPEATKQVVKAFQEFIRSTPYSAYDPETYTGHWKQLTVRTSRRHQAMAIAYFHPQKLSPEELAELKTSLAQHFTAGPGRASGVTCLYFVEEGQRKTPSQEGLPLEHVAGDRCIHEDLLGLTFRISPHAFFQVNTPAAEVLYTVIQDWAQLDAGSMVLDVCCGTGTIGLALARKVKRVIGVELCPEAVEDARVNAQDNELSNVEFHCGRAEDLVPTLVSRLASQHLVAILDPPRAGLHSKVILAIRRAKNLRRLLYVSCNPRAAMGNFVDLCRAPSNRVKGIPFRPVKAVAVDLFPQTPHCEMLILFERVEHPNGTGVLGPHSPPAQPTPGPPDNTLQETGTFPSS

Target	log2 mean competition ratio
TRPM7 C1411 (UniProt Q96QT4)	0.255
TTC31 C107	0.112
UBA3 C28 (UniProt Q8TBC4)	0.136
UAP1 C293 (UniProt Q16222)	-0.116
TUT4 C458 (UniProt Q5TAX3)	0.0153
TRMT11 C5 (UniProt Q7Z4G4)	-0.283
TTC30A C174	-0.0991
UBR4 C2554 (UniProt Q5T4S7)	0.0458
TSPYL4 C117 (UniProt Q9UJ04)	0.279
TUBGCP6 C615 (UniProt Q96RT7)	0.282
TROAP C647 (UniProt Q12815)	0.0331
UBIAD1 C31 (UniProt Q9Y5Z9)	-0.0585
TSPY9;TSPY2;TSPY3;TSPY4;TSPY8;TSPY10;TSPY1 C283;(C277);(C277);(C283);(C277);(C277);(C277)	0.107
TRMT10A C37 (UniProt Q8TBZ6)	-0.0549
UACA C1258 (UniProt Q9BZF9)	0.138
UBR2 C1717 (UniProt Q8IWV8)	0.262
TSFM C315 (UniProt P43897)	-0.107
TWF2 C275 (UniProt Q6IBS0)	0.161
TUBE1 C205 (UniProt Q9UJT0)	-0.116

Target	log2 mean competition ratio
UACA C980 (UniProt Q9BZF9)	0.0714
TRMT44 C194 (UniProt Q8IYL2)	-0.146
TYK2 C402 (UniProt P29597)	-0.0665
UBE3D C330 (UniProt Q7Z6J8)	0.124
UBAC1 C47 (UniProt Q9BSL1)	-0.433
TTC9 C67	-0.194
UBR1 C589 (UniProt Q8IWV7)	-0.354
UBR4 C2222 (UniProt Q5T4S7)	0.141
TTC28 C274 (UniProt Q96AY4)	0.372
TTF2 C37 (UniProt Q9UNY4)	0.166
TTC21B C937 (UniProt Q7Z4L5)	0.138
TWNK C77 (UniProt Q96RR1)	0.113
UBL5 C6 (UniProt Q9BZL1)	0.143
TUBGCP3 C274 (UniProt Q96CW5)	-0.0938
TXNRD2 C500 (UniProt Q9NNW7)	0.167
UAP1L1 C231 (UniProt Q3KQV9)	-0.416
TUT7 C775 (UniProt Q5VYS8)	0.161
TRMT2A C365 (UniProt Q8IZ69)	0.018

Reprinted at random: 2 records from the list, in no set order.
Target	log2 mean competition ratio
TUBGCP3 C274 (UniProt Q96CW5)	-0.0938
UBL5 C6 (UniProt Q9BZL1)	0.143
